Measurements published in US9234006B2, “Compounds” (Novacta Biosystems Limited, priority 2011, dated 2016).
Structures can show the parent of a compound that is named as a salt. At least one structure is not confirmed: it was looked up by name or label, or the drawing left a doubt. *1 amine or outer side, *2 acyl side, *3 side chain or, on linkers, in order; H or OH if unused. Where a SMILES comes first, the peptide text is derived from it. Bridges are numbered along the chain shown (N, C = ends). [ ]: non-standard residue; d: D form. The star is where a group is joined. ξ: configuration not given here. Propanoyl(3-NMe2) = CN(C)CCC(=O)*; NMeβAla = CN(CCC(=O)[*:2])[*:1]; Thr(3ξ) = CC(O)[C@H](N)C(=O)O; Dab = NCC[C@H](N)C(=O)O; βAla = NCCC(=O)O

Columns and labels:
Assay in all cases: MIC susceptibility testing, broth microdilution in CaMHB
Conditions in all cases: Table 4
E. coli ATCC700928 = format: cell-based, Escherichia coli
Description: (§1) To evaluate the potency and spectrum of the compounds, susceptibility testing was performed against four strains of each of the four Gram negative pathogens, Escherichia coli, Pseudomonas aeruginosa, Klebsiella pneumoniae and Acinetobacter baumannii.
(§2) The day before testing, 3 to 4 colonies were picked from fresh Mueller-Hinton Agar (MHA) plate and transferred into 10 mL of Cation adjusted MHB (CaMHB). Cultures were incubated at 37° C. 250 rpm for 18-20 hours before being diluted 100-fold in fresh CaMHB. The subcultures were grown further until the OD600 reached 0.2-0.3 corresponding to […]. The actively growing cultures were diluted 100-fold in fresh medium and used for the inoculum.
(§3) The assays were performed in duplicate.
(§4) Data was obtained under similar conditions to Table 4 except that different batches of cation-adjusted Muller-Hinton broth were used. The MIC values for these compounds are compared with those values obtained for Polymyxin B, Colistin Sulphate, CB-182,804 and NAB739 (as the TFA salt). CB-182,804 is a polymyxin decapeptide derivative with an aryl urea substituent at the N-terminus, which has been claimed to have lower toxicity than Polymyxin B (compound 5 in WO 2010/075416. See page 37). NAB739 has been described previously by Vaara et al.

E. coli ATCC25922 = format: cell-based, Escherichia coli
Description: as §1, §2, §3, §4

A. baumannii ATCC19606 = format: cell-based, Acinetobacter baumannii
Description: as §1, §2, §3, §4

A. baumannii NCTC13423 = format: cell-based, Acinetobacter baumannii
Description: as §1, §2, §3, §4

A. baumannii ATCCBAA-747 = format: cell-based, Acinetobacter baumannii
Description: as §1, §2, §3, §4

A. baumannii NCTC7844 = format: cell-based, Acinetobacter baumannii
Description: as §1, §2, §3, §4

P. aeruginosa ATCC27853 = format: cell-based, Pseudomonas aeruginosa
Description: as §1, §2, §3, §4

P. aeruginosa ATCC 9721 = format: cell-based, Pseudomonas aeruginosa
Description: as §1, §2, §3, §4

P. aeruginosa ATCC10145 = format: cell-based, Pseudomonas aeruginosa
Description: as §1, §2, §3, §4

[1] = system: P. aeruginosa ATCCCRM-9027; format: cell-based, Pseudomonas aeruginosa
Description: as §1, §2, §3, §4

K. pneumoniae NCTC7427 = format: cell-based, Klebsiella pneumoniae
Description: as §1, §2, §3, §4

K. pneumoniae NCTC8172 = format: cell-based, Klebsiella pneumoniae
Description: as §1, §2, §3, §4

K. pneumoniae ATCC 4352 = format: cell-based, Klebsiella pneumoniae
Description: as §1, §2, §3, §4

[2] = system: K. pneumoniae ATCCBAA-1706; format: cell-based, Klebsiella pneumoniae
Description: as §1, §2, §3, §4

E. coli NCTC9001 = format: cell-based, Escherichia coli
Description: as §1, §2, §3, §4

Row | SMILES | MIC (E. coli ATCC700928) [micrograms/mL] | MIC (E. coli ATCC25922) [micrograms/mL] | MIC (A. baumannii ATCC19606) [micrograms/mL] | MIC (A. baumannii NCTC13423) [micrograms/mL] | MIC (A. baumannii ATCCBAA-747) [micrograms/mL] | MIC (A. baumannii NCTC7844) [micrograms/mL] | MIC (P. aeruginosa ATCC27853) [micrograms/mL] | MIC (P. aeruginosa ATCC 9721) [micrograms/mL] | MIC (P. aeruginosa ATCC10145) [micrograms/mL] | MIC [1] [micrograms/mL] | MIC (K. pneumoniae NCTC7427) [micrograms/mL] | MIC (K. pneumoniae NCTC8172) [micrograms/mL] | MIC (K. pneumoniae ATCC 4352) [micrograms/mL] | MIC [2] [micrograms/mL] | MIC (E. coli NCTC9001) [micrograms/mL]
1 | CC(C)C[C@@H]1NC(=O)[C@@H](Cc2ccccc2)NC(=O)[C@H](CCN)NC(=O)[C@@H](NC(=O)[C@H](CCN)NC(=O)[C@@H](NC(=O)CCN(C)C)C(C)O)CCNC(=O)[C@H](C(C)O)NC(=O)[C@H](CCN)NC(=O)[C@H](CCN)NC1=O (stereo partly drawn) [Example 5, 3-(N,N-dimethylamino)-propanoyl Polymyxin B Nonapeptide, Sulphate Salt] ({Propanoyl(3-NMe2)}-[Thr(3ξ)][Dab][Dab][Dab][dF]L[Dab][Dab][Thr(3ξ)]; lactam 3-C) | 0.5 | 1 | 1 | 16 | 16 | 16 | 0.25 | 0.25 | 0.5 | 0.5 | 2 | >32 | 0.25 | 0.5 | 
2 | CNCCC(=O)N[C@H](C(=O)N[C@@H](CCN)C(=O)N[C@H]1CCNC(=O)[C@H](C(C)O)NC(=O)[C@H](CCN)NC(=O)[C@H](CCN)NC(=O)[C@H](CC(C)C)NC(=O)[C@@H](Cc2ccccc2)NC(=O)[C@H](CCN)NC1=O)C(C)O (stereo partly drawn) [Example 10, 3-(N-methylamino)Propanoyl Polymyxin B Nonapeptide, Sulphate Salt] (NMeβAla-[Thr(3ξ)][Dab][Dab][Dab][dF]L[Dab][Dab][Thr(3ξ)]; lactam 3-C) | 0.125 | 0.5 | 0.125 | 2 | 4 | 4 | 0.06 | 0.125 | 0.125 | 0.125 | 0.06 | >32 | 0.125 | 0.25 | 1
3 | CC(C)C[C@@H]1NC(=O)[C@@H](CC(C)C)NC(=O)[C@H](CCN)NC(=O)[C@@H](NC(=O)[C@H](CCN)NC(=O)[C@@H](NC(=O)CCN)C(C)O)CCNC(=O)[C@H](C(C)O)NC(=O)[C@H](CCN)NC(=O)[C@H](CCN)NC1=O (stereo partly drawn) [Example 12, 3-Aminopropanoyl Colistin (Polymyxin E) Nonapeptide, Sulphate Salt] (H-[βAla][Thr(3ξ)][Dab][Dab][Dab][dL]L[Dab][Dab][Thr(3ξ)]; lactam 4-C) |  | 4 | 32 |  |  |  | 0.5 |  |  |  |  |  | 0.5 |  | 
